The test deals with T1, 3xFLAG-TRIP13 (human) (UniProt Q15645).
T1 sequence: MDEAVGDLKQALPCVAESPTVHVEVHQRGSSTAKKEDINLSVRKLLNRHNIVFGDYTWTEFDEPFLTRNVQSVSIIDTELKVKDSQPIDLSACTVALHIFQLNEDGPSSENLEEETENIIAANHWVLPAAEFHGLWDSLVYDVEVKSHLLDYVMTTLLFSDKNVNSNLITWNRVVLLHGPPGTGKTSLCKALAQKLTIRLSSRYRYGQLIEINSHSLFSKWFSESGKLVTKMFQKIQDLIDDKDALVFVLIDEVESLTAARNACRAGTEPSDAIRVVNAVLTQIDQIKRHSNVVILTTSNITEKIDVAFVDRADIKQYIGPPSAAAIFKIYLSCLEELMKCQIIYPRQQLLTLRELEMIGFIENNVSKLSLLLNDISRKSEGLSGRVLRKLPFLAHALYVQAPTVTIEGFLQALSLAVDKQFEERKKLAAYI
The test can be described thus: co-IP; FLAG immunoprecipitation from cells overexpressing 3xFLAG-TRIP13 and the Myc-MRE11 domain deletion series; buffer X (100 mM Tris-HCl, 250 mM NaCl, 1 mM EDTA, 1% NP-40) with Benzonase, 4 °C.

In PMC9776959 one finds binding data, which are given here for two substances.

Results are given in words; binding and its absence hold for the method and conditions named. In cells and extracts the contact can be indirect. Binding calls can cover weak binding; strength is not graded here. Tags and fused reporters may be left off the sequences shown.

For the substance “Myc-MRE11 C-terminal domain deletion (domain or fragment)”, the binding entry is recorded as “binds”. The value for “Myc-MRE11 capping domain deletion (domain or fragment)” was “binds”.
